In patent US20160102073A1, “2-HYDROXYMETHYL-SUBSTITUTED OREXIN RECEPTOR ANTAGONISTS” (MERCK SHARP & DOHME CORP., priority 2013, published 2016):
The match of structure and compound is tentative.

Amino acid sequences for entries named in this document (tags omitted).
UniProt O43614, whole entry: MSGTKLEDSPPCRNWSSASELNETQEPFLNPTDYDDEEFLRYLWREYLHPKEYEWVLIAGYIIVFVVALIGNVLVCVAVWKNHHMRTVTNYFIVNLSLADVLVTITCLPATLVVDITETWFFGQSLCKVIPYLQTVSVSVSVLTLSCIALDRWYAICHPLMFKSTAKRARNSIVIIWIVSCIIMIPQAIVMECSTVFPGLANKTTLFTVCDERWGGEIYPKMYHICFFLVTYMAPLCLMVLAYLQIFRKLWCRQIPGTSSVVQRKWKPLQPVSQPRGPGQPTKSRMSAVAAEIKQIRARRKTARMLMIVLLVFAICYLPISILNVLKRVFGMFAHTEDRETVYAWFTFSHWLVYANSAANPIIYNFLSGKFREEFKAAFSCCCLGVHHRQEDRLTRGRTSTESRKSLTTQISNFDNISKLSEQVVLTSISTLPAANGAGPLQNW
UniProt O43613, whole entry: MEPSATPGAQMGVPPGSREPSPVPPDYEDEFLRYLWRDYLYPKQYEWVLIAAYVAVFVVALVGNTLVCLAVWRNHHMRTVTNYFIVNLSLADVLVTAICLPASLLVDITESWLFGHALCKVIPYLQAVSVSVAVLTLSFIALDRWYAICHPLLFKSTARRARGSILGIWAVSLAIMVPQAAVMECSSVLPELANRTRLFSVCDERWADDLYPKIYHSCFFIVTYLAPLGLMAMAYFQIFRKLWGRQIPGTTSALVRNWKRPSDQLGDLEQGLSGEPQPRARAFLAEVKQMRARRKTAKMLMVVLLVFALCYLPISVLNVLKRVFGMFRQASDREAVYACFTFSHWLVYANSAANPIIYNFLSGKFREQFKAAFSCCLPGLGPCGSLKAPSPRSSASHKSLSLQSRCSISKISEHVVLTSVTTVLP

How the values were obtained:
[1] = target: human orexin-2 receptor (hOX2R) (Homo sapiens, UniProt O43614); experiment: FLIPR Ca2+ Flux Assay, CHO cells expressing hOX2R; format: cell-based; details: read-out: hOX2R FLIPR IC50, agonist 70 pM Ala-6,12 orexin-A
Description: The utility of the compounds in accordance with the present invention as orexin receptor OX1R and/or OX2R antagonists may be readily determined without undue experimentation by methodology well known in the art, including the “FLIPR Ca^2+ Flux Assay” (Okumura et al., Biochem. Biophys. Res. Comm. 280:976-981, 2001). In a typical experiment the OX1 and OX2 receptor antagonistic activity of the compounds of the present invention was determined in accordance with the following experimental method. […] Within the Fluorescent Imaging Plate Reader (FLIPR, Molecular Devices), test compounds are added to the plate in a volume of 25 μl, incubated for 5 min and finally 25 μl of agonist is added. Fluorescence is measured for each well at 1 second intervals for 5 minutes and the height of each fluorescence peak is compared to the height of the fluorescence peak induced by 70 pM Ala-6,12 orexin-A with buffer in place of antagonist. […] Alternatively, compound potency can be assessed by a radioligand binding assay (described in Bergman et. al. Bioorg. Med. Chem. Lett. 2008, 18, 1425-1430) in which the inhibition constant (Ki) is determined in membranes prepared from CHO cells expressing either the OX1 or OX2 receptor. The intrinsic orexin receptor antagonist activity of a compound which may be used in the present invention may be determined by these assays. […]

[2] = target: human orexin-1 receptor (hOX1R) (Homo sapiens, UniProt O43613); experiment: FLIPR Ca2+ Flux Assay, CHO cells expressing hOX1R; format: cell-based; details: read-out: hOX1R FLIPR IC50, agonist 70 pM Ala-6,12 orexin-A

Q: Which results are given for C[C@@H]1CC[C@@H](Oc2ncccc2C(C)(C)O)CN1C(=O)c1ccc(F)cc1-c1ncccn1?
A: IC50 [1]: 94 nM; IC50 [2]: 550 nM
